Some of the results follow.
Assays:
Test in all cases: log2 fold change, soluble protein after heating vs DMSO (PISA); higher = thermal stabilisation; K562 cells, 10 uM, 30 min; active = over 0.2 and 3.5 SD of the protein, either way, in both replicates (recomputed)
[1] = compound: Cc1ccc(NC(=O)c2ccc(CN3CC[C@H](N(C)C)C3)c(C(F)(F)F)c2)cc1Nc1nccc(-c2cncnc2)n1 [bafetinib]
How it was run: (§1)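 Soluble protein was defined as the supernatant after 21,000xg for 90 min. It came from K562 cells at 2×10^6 cells/mL given 10 μM compound for 30 min, heated in aliquots for 3 min across 48°C-58°C, pooled, and extracted in PBS with 0.5% NP-40 at 4°C, and was quantified by TMTpro 16plex LC-MS/MS with equalised channel sums. Thermal stability against control samples, from duplicates, is reported as log2 fold change.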

Protein sequences, listed by entry. Tags and fused reporters are not part of them. Lines headed by an entry give the natural chain unless they say otherwise; changes in a name come on top.
UniProt Q9HCD5: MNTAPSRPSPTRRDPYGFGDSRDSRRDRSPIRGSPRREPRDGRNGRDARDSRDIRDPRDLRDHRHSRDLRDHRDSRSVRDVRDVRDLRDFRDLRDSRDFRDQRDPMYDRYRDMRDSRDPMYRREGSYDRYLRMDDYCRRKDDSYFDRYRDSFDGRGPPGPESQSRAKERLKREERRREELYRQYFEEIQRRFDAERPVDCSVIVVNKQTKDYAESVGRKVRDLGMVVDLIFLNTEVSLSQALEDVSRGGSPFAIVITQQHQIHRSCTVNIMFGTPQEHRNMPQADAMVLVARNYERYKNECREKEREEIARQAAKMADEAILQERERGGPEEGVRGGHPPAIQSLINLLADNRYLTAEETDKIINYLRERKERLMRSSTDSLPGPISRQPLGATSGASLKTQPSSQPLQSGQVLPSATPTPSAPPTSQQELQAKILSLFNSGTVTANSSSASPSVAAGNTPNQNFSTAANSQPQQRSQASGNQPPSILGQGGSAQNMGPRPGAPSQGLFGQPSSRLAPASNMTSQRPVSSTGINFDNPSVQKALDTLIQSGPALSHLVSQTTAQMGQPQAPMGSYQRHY
UniProt Q8WUY8: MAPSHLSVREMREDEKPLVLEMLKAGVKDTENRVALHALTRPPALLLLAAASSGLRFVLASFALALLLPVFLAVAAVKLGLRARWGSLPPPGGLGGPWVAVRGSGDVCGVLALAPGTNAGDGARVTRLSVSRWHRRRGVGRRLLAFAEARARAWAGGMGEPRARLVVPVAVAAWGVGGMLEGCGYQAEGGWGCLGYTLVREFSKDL
UniProt Q6IBW4: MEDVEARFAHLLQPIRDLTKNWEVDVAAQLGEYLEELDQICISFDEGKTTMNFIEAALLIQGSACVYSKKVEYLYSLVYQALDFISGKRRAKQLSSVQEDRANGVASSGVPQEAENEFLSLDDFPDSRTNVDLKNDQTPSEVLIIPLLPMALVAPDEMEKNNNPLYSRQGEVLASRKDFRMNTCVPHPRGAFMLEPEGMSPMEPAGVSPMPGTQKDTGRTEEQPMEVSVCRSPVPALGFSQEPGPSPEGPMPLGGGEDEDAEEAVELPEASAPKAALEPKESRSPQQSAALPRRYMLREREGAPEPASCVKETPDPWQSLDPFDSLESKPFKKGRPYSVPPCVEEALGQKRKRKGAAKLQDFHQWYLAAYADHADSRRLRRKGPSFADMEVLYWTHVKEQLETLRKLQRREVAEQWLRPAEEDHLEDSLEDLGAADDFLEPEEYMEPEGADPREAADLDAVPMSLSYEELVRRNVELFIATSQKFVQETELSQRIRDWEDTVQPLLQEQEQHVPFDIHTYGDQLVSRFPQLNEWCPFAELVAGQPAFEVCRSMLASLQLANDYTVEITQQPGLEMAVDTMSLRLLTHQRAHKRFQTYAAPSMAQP
UniProt Q6ZNJ1: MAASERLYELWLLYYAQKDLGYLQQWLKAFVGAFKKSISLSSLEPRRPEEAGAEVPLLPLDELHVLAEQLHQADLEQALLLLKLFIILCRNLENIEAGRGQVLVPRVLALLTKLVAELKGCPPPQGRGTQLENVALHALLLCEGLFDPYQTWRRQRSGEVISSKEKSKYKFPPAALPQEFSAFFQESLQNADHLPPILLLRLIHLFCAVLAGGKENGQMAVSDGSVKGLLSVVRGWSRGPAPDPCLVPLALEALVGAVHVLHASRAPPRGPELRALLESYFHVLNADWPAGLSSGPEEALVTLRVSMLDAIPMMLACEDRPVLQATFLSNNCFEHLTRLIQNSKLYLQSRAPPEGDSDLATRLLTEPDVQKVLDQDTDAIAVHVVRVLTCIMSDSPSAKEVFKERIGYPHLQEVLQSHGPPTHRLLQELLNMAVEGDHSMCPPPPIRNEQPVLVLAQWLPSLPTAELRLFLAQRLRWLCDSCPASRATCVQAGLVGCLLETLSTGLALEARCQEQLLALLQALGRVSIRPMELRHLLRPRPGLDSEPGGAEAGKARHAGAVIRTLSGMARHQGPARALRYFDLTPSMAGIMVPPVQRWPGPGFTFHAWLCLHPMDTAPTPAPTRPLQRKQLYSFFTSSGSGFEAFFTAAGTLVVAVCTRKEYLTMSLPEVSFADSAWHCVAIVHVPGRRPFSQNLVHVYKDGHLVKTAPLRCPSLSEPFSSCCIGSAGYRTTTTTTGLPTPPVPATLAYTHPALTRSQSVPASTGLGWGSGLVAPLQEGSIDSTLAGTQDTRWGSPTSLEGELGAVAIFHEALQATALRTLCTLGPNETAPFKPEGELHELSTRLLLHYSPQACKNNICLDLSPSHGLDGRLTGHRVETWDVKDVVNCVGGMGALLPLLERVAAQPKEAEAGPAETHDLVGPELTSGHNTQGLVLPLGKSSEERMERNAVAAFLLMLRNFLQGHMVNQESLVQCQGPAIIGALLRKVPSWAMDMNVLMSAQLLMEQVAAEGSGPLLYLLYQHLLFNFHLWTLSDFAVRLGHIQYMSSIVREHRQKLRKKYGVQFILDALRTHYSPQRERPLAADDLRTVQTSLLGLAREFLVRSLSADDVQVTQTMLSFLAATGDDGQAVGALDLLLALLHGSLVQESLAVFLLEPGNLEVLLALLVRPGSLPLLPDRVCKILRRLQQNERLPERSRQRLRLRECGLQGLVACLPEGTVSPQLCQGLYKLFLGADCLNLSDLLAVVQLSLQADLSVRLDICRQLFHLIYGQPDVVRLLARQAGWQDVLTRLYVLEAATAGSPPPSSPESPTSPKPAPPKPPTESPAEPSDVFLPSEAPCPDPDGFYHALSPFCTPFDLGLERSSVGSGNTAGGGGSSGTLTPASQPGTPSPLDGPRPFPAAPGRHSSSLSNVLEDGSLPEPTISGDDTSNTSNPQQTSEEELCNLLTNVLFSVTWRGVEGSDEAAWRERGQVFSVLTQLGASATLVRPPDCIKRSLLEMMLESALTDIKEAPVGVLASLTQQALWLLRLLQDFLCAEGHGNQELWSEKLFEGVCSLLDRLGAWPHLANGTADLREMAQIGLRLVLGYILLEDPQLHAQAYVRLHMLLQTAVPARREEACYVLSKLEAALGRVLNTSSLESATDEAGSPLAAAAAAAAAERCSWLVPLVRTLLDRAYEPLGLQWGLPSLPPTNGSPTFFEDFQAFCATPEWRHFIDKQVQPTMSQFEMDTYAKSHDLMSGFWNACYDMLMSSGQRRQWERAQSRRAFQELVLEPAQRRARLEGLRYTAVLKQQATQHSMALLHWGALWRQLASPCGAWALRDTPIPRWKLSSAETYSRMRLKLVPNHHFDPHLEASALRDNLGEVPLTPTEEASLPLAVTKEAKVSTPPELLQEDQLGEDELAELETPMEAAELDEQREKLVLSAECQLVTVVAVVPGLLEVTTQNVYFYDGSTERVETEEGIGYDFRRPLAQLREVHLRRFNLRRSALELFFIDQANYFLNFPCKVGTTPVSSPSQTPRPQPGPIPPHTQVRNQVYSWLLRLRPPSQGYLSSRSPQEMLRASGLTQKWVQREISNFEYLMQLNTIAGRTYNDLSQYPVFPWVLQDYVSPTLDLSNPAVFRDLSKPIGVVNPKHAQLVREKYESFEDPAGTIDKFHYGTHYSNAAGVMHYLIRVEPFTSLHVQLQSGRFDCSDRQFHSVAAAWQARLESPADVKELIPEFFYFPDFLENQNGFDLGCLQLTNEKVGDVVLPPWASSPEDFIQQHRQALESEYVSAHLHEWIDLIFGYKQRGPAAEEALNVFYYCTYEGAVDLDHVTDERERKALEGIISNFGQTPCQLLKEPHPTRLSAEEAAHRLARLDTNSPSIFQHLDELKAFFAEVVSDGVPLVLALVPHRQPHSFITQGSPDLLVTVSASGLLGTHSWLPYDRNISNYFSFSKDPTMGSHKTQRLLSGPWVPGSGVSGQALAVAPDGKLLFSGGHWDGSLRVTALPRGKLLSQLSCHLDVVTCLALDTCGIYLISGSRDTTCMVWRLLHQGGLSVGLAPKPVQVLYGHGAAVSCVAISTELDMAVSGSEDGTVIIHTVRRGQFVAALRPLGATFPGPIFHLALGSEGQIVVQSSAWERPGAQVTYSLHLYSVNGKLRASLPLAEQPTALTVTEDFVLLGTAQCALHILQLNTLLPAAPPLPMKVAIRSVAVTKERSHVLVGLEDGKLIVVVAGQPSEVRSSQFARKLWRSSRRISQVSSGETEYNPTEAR
UniProt Q02083: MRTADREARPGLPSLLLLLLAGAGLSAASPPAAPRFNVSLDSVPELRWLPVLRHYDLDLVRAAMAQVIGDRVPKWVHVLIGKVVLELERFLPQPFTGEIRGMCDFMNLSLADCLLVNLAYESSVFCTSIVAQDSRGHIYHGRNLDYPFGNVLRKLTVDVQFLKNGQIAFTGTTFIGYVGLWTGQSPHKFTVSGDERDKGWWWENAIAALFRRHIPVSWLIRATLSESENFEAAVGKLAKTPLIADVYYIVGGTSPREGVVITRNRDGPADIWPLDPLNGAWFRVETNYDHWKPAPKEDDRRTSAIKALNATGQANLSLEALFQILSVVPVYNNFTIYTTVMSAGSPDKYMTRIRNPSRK
UniProt P56181: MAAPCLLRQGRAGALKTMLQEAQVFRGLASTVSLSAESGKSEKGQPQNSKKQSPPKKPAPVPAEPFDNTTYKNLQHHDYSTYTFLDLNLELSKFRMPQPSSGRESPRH
UniProt Q15788: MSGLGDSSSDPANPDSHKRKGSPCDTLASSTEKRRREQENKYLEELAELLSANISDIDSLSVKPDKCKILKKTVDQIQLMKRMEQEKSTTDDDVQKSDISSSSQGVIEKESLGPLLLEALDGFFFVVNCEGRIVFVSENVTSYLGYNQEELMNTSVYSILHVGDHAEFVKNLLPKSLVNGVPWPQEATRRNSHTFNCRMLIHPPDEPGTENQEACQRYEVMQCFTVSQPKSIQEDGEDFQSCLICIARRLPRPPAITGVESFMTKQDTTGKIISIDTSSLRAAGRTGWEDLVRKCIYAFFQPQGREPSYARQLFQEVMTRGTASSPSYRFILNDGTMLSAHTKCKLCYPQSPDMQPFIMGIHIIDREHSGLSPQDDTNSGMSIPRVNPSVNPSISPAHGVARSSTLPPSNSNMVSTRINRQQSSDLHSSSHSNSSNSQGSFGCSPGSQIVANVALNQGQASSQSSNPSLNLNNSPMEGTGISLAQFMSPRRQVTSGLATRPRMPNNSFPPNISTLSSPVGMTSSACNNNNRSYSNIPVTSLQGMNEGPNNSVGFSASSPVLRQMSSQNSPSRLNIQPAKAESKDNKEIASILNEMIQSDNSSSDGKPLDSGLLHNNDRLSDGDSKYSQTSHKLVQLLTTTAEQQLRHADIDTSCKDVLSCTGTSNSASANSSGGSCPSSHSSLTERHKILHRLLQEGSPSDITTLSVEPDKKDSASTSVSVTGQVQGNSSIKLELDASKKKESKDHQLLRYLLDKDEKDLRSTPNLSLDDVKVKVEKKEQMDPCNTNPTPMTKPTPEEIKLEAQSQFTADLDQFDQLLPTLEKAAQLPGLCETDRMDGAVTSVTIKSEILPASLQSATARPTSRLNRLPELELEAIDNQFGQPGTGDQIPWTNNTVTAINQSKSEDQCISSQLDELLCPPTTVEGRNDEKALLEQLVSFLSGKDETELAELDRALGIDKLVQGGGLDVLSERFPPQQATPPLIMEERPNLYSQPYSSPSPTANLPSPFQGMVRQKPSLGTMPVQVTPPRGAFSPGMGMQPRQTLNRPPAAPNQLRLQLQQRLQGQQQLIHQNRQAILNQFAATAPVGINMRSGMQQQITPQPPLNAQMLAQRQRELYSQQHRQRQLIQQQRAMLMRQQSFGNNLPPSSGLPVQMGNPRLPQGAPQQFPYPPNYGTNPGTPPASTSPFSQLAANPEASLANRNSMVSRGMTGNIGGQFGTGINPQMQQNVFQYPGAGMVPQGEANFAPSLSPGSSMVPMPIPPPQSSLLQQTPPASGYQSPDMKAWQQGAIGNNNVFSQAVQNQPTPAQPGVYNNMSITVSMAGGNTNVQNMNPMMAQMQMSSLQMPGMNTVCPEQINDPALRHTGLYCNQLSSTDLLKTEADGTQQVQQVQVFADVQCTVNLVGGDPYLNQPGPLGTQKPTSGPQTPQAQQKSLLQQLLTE
UniProt Q8N6N6: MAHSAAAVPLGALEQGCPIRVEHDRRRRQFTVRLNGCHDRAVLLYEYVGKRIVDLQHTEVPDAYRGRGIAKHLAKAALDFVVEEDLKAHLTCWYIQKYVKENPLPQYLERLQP

[2] = compound: Cc1cn(-c2cc(NC(=O)c3ccc(C)c(Nc4nccc(-c5cccnc5)n4)c3)cc(C(F)(F)F)c2)cn1 [nilotinib]
How it was run: as §1

[3] = compound: Cc1nc(Nc2n[nH]c3c2CN(C(=O)N[C@H](CN(C)C)c2ccccc2)C3(C)C)c2sccc2n1
How it was run: as §1

[4] = compound: Cc1ncc(-c2ccnc(Nc3ccc(S(C)(=O)=O)cc3)n2)n1C(C)C
How it was run: as §1

[5] = compound: Cn1cncc1[C@@](N)(c1ccc(Cl)cc1)c1ccc2c(c1)c(-c1cccc(Cl)c1)cc(=O)n2C [tipifarnib]
How it was run: as §1

[6] = compound: FC(F)(F)c1ccc(/C=C/c2nc(COc3ccc(CCCCn4ccnn4)cc3)co2)cc1 [mubritinib]
How it was run: as §1

[7] = compound: Cc1nc(Nc2ncc(C(=O)Nc3c(C)cccc3Cl)s2)cc(N2CCN(CCO)CC2)n1 [dasatinib]
How it was run: as §1

[8] = compound: Cn1cc(-c2ccc3c(c2)CCN3C(=O)Cc2cccc(C(F)(F)F)c2)c2c(N)ncnc21
How it was run: as §1

[9] = compound: Cn1cc(-c2ccc3nnc(C(F)(F)c4ccc5ncccc5c4)n3n2)cn1
How it was run: as §1

[10] = compound: Cc1cccc(CC(=O)N2CCc3c2ccc(-c2cn(C)c4ncnc(N)c24)c3F)n1
How it was run: as §1

Measured: log2 fold change

NDUFV1 (UniProt E9PJL9)
inactive: [1] 0.015 | [2] -0.021 | [3] 0.092 | [4] -0.049 | [5] 0.149 | [6] 0.083

NEK1 isoform 3 (UniProt Q96PY6)
inactive: [7] -0.215 | [8] -0.107 | [9] -0.112

NEBL (UniProt O76041)
inactive: [1] -0.137 | [2] 0.035 | [3] 0.121 | [7] 0.027 | [4] 0.057 | [8] 0 | [9] 0.014 | [5] 0.065 | [6] 0.054

NCOA5 (UniProt Q9HCD5)
inactive: [10] -0.04 | [2] -0.428 | [7] -0.043 | [4] 0.218 | [9] -0.203 | [5] 0.164
active: [3] -0.92

NAT14 (UniProt Q8WUY8)
inactive: [1] -0.071 | [2] 0.003 | [3] -0.052 | [7] -0.066 | [4] 0 | [8] -0.06 | [9] -0.209 | [5] 0.054 | [6] 0.118

NASP isoform 2 (UniProt P49321)
inactive: [6] -0.347

NDC80 (UniProt O14777)
inactive: [10] -0.05 | [2] -0.05 | [3] -0.223 | [7] -0.074 | [4] 0.164 | [8] -0.129 | [9] -0.119 | [5] -0.017 | [6] -0.054

NCAPH2 isoform 4 (UniProt Q6IBW4)
inactive: [2] -0.076 | [3] -0.108 | [4] -0.145 | [6] -0.001

NDRG2 (UniProt G3V392)
inactive: [1] -0.131 | [5] 0.099 | [6] -0.418

Quoted from above (3 entries):
NASP isoform 2 (UniProt P49321)
inactive: [6] -0.347

NDC80 (UniProt O14777)
inactive: [10] -0.05 | [2] -0.05 | [3] -0.223 | [7] -0.074 | [4] 0.164 | [8] -0.129 | [9] -0.119 | [5] -0.017 | [6] -0.054

NCAPH2 isoform 4 (UniProt Q6IBW4)
inactive: [2] -0.076 | [3] -0.108 | [4] -0.145 | [6] -0.001

(list continues)

NA (UniProt J3KR12)
inactive: [1] 0.338 | [2] 0.208 | [3] -0.221 | [4] -0.196 | [9] -0.112 | [6] 0.16

MYOF (UniProt Q9NZM1)
inactive: [7] -0.091

NBEAL2 (UniProt Q6ZNJ1)
inactive: [10] -0.001 | [8] 0.054 | [9] -0.247 | [6] 0.05

NAAA (UniProt Q02083)
inactive: [10] -0.013 | [2] -0.028 | [3] 0.04 | [4] 0.081 | [8] -0.081 | [9] -0.093 | [5] 0.011 | [6] 0.01

NDUFV3 (UniProt P56181)
inactive: [1] 0.042 | [2] -0.01 | [3] 0.031 | [7] -0.09 | [4] -0.059 | [8] 0.137 | [9] 0.04 | [5] 0.042 | [6] 0.049

NCOA1 (UniProt Q15788)
inactive: [1] -0.118 | [2] -0.159 | [3] -0.08 | [7] -0.096 | [4] -0.072 | [8] 0.135 | [9] 0.058 | [6] 0.183

NCKIPSD (UniProt Q9NZQ3)
inactive: [10] 0.04 | [9] 0.084 | [5] -0.025

NATD1 (UniProt Q8N6N6)
inactive: [2] -0.084 | [3] -0.027 | [4] 0.13 | [5] 0.097 | [6] -0.169

NAP1L4 (UniProt C9J6D1)
inactive: [7] 0.085
